According to publication PMC10506287:
These are yes or no findings as the source states them, for the method shown. Binding seen in cells or lysates may run through a third protein. Some binding calls cover weakened binding; strength is not graded here.

Amino acid sequences for entries named in this document (tags omitted).
UniProt O35800: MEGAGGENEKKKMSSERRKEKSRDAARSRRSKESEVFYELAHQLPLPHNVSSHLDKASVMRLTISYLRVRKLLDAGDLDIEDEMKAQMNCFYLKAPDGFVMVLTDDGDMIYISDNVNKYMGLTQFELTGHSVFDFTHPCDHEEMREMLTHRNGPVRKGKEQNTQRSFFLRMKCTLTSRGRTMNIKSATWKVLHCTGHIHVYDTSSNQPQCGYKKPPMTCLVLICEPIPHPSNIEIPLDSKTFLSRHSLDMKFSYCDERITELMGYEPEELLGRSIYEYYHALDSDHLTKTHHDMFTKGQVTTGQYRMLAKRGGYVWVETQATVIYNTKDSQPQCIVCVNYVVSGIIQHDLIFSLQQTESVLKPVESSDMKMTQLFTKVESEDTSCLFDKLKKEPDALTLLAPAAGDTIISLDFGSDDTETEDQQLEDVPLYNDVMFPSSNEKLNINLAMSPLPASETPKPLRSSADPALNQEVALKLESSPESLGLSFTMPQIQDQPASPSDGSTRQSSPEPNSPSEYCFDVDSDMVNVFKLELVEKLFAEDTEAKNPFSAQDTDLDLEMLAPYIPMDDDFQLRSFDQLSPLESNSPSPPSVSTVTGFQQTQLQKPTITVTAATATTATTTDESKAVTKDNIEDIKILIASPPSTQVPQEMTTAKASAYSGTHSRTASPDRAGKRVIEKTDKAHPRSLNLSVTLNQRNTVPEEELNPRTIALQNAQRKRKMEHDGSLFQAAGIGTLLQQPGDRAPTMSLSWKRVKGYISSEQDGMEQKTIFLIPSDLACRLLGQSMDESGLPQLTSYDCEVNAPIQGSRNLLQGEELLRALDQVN

Biological target: T1, S100a9 (rat (endogenous in H9c2)) (UniProt P50116)
T1 sequence: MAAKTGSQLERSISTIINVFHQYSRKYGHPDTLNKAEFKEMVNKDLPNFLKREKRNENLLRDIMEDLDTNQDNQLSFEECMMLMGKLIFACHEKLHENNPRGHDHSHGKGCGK
Assay: co-IP; protein A/G magnetic beads with S100a9 antibody, HIF-1α antibody or rabbit IgG, incubated with protein lysates overnight; cardiomyocytes (H9c2) untreated or treated with β1-AAs for 24 h; detected by western blot

- binding: binds
Substance: hypoxia inducible factor-1α (from UniProt O35800 1-825)
